Laboratory results as given in the DeepSol protein solubility set.

Experiment: soluble on expression in E. coli; label from the status in PepcDB or PDB records

| Sequence | soluble on expression in E. coli |
| --- | --- |
| AIAAAPVVAADSPVIENMTETAGGATENSAEAQKRPQFGTRFLTDPRQVFQHNAWDNVEWSAEQEEAALKKVQENSQPLPAEKQEEFDNRANEYWNDFYTIHENRFFKDRHWLFTEFPELAPQQKHLRGAEEKESLEHMLNGEDISLNPTHDEFPGASASYRILEVGCGVGNTVFPILKTNNDPGLFVYCCDFSSTAVDLVKSNPEYDPSRCHAFVHDMSDESGEYPMPDHSLDVIVLIFVLSALHPEKMQKSINRLGRLLKPGGVLLLRDYGRYDMAQLRFKKGRCLSENFYVRGDGTLVYFFTQDELHDLFSSAGLEKLQNLADRRLQVNRGKQLTMYRVWVQCKYRKVLAPT | soluble |
| ASTEKEEKMGTIIGIDLGTTYSCVGVFKNGRVEIIANDQGNRITPSYVAFSGDQGERLIGDAAKNQLTINPENTIFDAKRLIGRFYNEKTVQQDIKHWPFKIVDKSNKPNVEVKVGSETKQFTPEEVSAMVLTKMKQIAESYLGHEVKNAVVTVPAYFNDAQKQATKDAGSIAGLNVVRIINEPTAAAIAYGLDKKDGERNILVFDLGGGTFDVSLLTIDSGVFEVLATNGDTHLGGEDFDQRVMEYFIKLYKKKSGKDLRKDNRAVQKLRREVEKAKRALSTQHQTKIEIESLFDGEDFSETLTRAKFEELNMDLFRATLKPVQKVLEDADMKKTDVHEIVLVGGSTRIPKVQQLIKDYFNGKEPSRGINPDEAVAYGAAVQAGVIG | soluble |
| GAPEGPGPSGGAQGGSIHSGRIAAVHNVPLSVLIRPLPSVLDPAKVQSLVDTIREDPDSVPPIDVLWIKGAQGGDYFYSFGGCHRYAAYQQLQRETIPAKLVQSTLSDLRVYLGASTPDLQ | soluble |
| GSHMKDVQTETFSVAESIEEISKANEEITNQLLGISKEMDNISTRIESISASVQETTAGSEEISSATKNIADSAQQAASFADQSTQLAKEAGDALKKVIEVTRMISNSAKDVERVVESFQKGAEEITSFVETINAIAEQTNLLALNAAIEAARAGEAGRGFAVVADEIRKLAEESQQASENVRRVVNEIRSIAEDAGKVSSEITARVEEGTKLADEADEKLNSIVGAVERINEMLQNIAAAIEEQTAAVDEITTAMTENAKNAEEITNSVKEVNARLQEISASTEEVTSRVQTIRENVQMLKEIVARYK | soluble |
| MGHHHHHHSHMSVYSGKVLLQTTPPHVIGQLDKLIREVSTLDGVLEVRNEHFWTLGFGSLAGSVHVRIRRDANEQMVLAHVTNRLYTLVSTLTVQIFKDDWIRPALLSGPVAANVLNFSDHHVIPMPLLKGTDGLNPYVHFLWKINFFLFFDMESLSVAQAGVQWHDLGSLQPHLPGSSNSACLSLPSSWDYRHAPPHLPNFCIISKDGVLPCWPCWS | soluble |
| MGRKKIQITRIQDERNRQVTFTKRKFGLMKKAYELSVLCDCEIALIVFNSTNKLFQYASTDMDKVLLKYTEYNEPHESRTNNDIMEALNRKEGNQGGGNSDDESPGPSTSPVIQITMPAVVNGHSSNNSVASAASASAAAVAAAAAAVAAVEGTSSGAAAAAAALQASNAQRHHNLNLYQNLIFNPNYTRHLNQRNDPLSSTSVAPSSSSSKHLDFPPSTSFAYDTSRLHPIAAADADCDLVPSSRAAADQNIWSSALQQRPVSQPAPSISNSSTNGISNGTSSLLSPNVSSLNGHSVLDLGGPNLPYKLDPNTYVKMEPHSPPEKRPRITTEWRPQQLT | not soluble |
| MGSAIQDYFVKNRVGHSKPWESGKFKAADNFPDLSKHNNVMASQLTKELYEKYWDKVTPNGVTFDKCIQTGVDNPGNKFYGKKTGCVFGDEYSYECYKEFFDKCIEEIHHFKPSDKHPAPDLDHNKLVGGVFEDKYVKSCRIRCGRSVKGVCLPPAMSRAERRLVEKVVSDALGGLKGDLAGKYYPLTTMNEKDQEQLIEDHFLFEKPTGALLTTSGCARDWPDGRGIWHNNEKNFLVWINEEDHIRVISMQKGGDLKAVFSRFARGLLEVERLMKECGHGLMHNDRLGYICTCPTNMGTVVRASVHLRLAFLEKHPRFDEMLGKLRLGKRGTGGESSLATDSTYDISNWARLGKSERELVQVLVDGVNLLIACDKKLEAGQSIDDMIPK | soluble |
| MGSDKIHHHHHHMVIMEYKSIRQTLAMSSSTLKPQDAAEKEYENRLNGYSTYRSGIVFDGHEMFAVAFRELLNAMDSVRGMEVRVEALWNTLPPIARRAYLMELIGAEMQNTNTIENVHTTREEIADALDSAVADGPHKRLSELAKLFLGLSGEGAARLDLPQTLNDIRSIYDQVMDGELKDDQKPDGMLFRARTVSVYDGADRVIHKGAWPESEIQVQLTKWLALLSNETIPPLLRATMCHYAFECIHPFYDGNGRTGRFLLALQLSKSLSVPTAVSLSSAIAEAKGQYYKAFDEVQHPLNCSDVSLFCYRMIHFVATAQENIISVLSEKKAMLDAAKDNLERYADAHDVPELQRDMLFFLLQEELFDDTSNSISRRLMREWLGVGERKVSTALDALMDLGLLEAHGKRPIRYSLSDAARGEFLR | not soluble |
| MIYHFGGYDMTRPIPTSVSQFMAKVESLCGDQHPDWALNFKTSFTNTLETTLKTYEDGTSFLLTGDIPAMWLRDSTAQMKPYLFLAKEDEEIRKIIAGLVKRQFRYICIDPYANAFNEEANEKGHQTDHTQMNPWIWERKYEIDSLCYPIQLAYLLYRETGSTDQFNDDFHRGVELILDLWTVEQDHAQSPYLFERDTWRKEDTLTHAGKGSPVAPTGMTWSGFRPSDDACQYGYLIPSNMFAVVVLSYLEDLYNNLFHNESVATRAKQLKEAIQSGIADHALVQNSKGETIYAYEVDGLGQFSIMDDANIPSLLAAPYLGFCAKDDPIYLATRRTILSQENPYYYQGNAAAGIGSSHTPENYIWHIALALQGLTALDQDSKKEMLDLLVATDAGTHLMHEGFDVNDPYQYTREWFSWANMMFCELLLDYLGFSIAPLEHHHHHH | soluble |
| MKKRRSDMIKKGFDRAPHRSLLRAAGVKEEDFDKPFIAVVNSYIDIIPGHVHLQEFGRIVKEAIREAGGVPFEMNTIGVDDGIAMGHIGMRYSLPSREIIADSIETVISAHWFDGMVCIPNCDKITPGMMMAAMRLNIPTIFVSGGPMKAGVTKDGRKISLSSVFEGVGAYLGGTLDEKGLEELERYGCPTCGSCSGMFTANSMNCLAEALGLALPGNGTILAVDPARKELVRQSAKQLMYLIEHDIKPRDIVTEKAIDNAFALDMALGGSTNTVLHTLAIANEAGIDYSLERINEIAARVPHLAKLAPASDVHYIEDLHEAGGVSAVLNELAKKEGTLHLDTLTVTGKTLGENIAGCEVKNYDVIRPIDNPYSETGGLAILFGNLAPDGAVIKTGAVQGGITRHEGPAIVFDSQEEALEGIASGKIKPGHVVVIRYEGPKGGPGMPEMLAPTSQIVGMGLGTKVALVTDGRFSGASRGLSVGHVSPEAAEGGPIAFIQDGDIIEIDTVKRTINVKLSDEELERRKANWKGFEPKVKTGYLARYSKHVTSASTGGIMKI | not soluble |
| MKQAFRVALGFLVLWASVLHAEVRIEITQGVDSARPIGVVPFKWMGPGTPPEEIGAIVGADLRNSGKFNPIDAARMPQQPSTAAEVTPAAWTALGIDAVVVGQVQPSADGSYVVSYQLVDTSGSAGSILAQNQYKVTKQWLRYSAHTVSDEVFEKLTGIKGAFRTRIAYVVKTNGGKFPHELRVSDYDGYNQFVVHRSPEPLMSPAWSPDGSKIAYVTFESGKSALVIQTLANGAIRQVASFPRHNGAPAFSPDGTKLAFALSKSGSLNLYVMDLASGQISQVTDGRSNNTEPSWFPDSQNLAYTSDQGGRPQVYKVNINGGVPQRITWEGSQNQNADVSPDGKFLVLVSSNGGAQHIAKQDLETGAVQVLTDTLLDETPSIAPNGTMVIYSSTQGLGSVLQLVSTDGRFKARLPATDGQVKFPAWSPYL | not soluble |
| MLKVFADRGGTFTDIVTVTNNQAIIDRLSRHPERFLIVTLPNQEWIIVYKVLSENPEQYQDAAIQGIRDIMGISSNEPIPTEAIEVVKMGTTVATNALLERKGDRVVLIITKGFKDALRIGYQNRPNIFARHIVLPTMLYEQVIEIDERYDAYGNELTPVNIQQAENDLQAVYNTGIRSCAIVFMHSDRYPKHEQQIAQIAQEIG | not soluble |
| MNIGKIPVTVLSGYLGAGKTTVLNHVLANKEGMKVAVIVNDMSEVNIDATLVKQGGFTRTDEKLVELQNGCICCTLREDLIIEVEKLARLGNIDYILIESTGISEPIPVAQTFTYLDEELGIHLGDRCTLDTMVTVVDANRFWEDYESGESLLDRKQTDDEADTREVVDLLIDQIEFANVILLNKVDLVEEDDVRELTAVLHKLNPEAEILPVSHGRVDLNRILHTGLFDFDKASQGAGWIKELNEEHTPETEEYGISSFVYKRQRPFHPERWMEWLENWPQEVVRAKGFFWLATRNEMAGLISQAGTSIVIQGAGLWVAAYDKEEQQQVLAEEPELAARWHRKYGDRMNELVFIGLDMDRKEIEKSLDTCLLTDEELGQDWSALPDPLPSFTEQ | not soluble |
| MRTPQLPEQVVRMKYFAMPPMTIQEALEHLEMVDHDFYVFRNRDTGEINVVYERNHGGYGVIQPRPTLEHHHHHH | not soluble |
| MSLDEVQNVDDQHLLLHDQTVIRKGPISMTKNPLNLPCQKELVGAVMNPTEVFCSVPGRLSLLSSTSKYKVTVAEVQRRLSPPECLNASLLGGVLRRAKSKNGGRSLREKLDKIGLNLPAGRRKAAHVTLLTSLVEGEAVHLARDFAYVCEAEFPSKPVAEYLTRPHLGGRNEMAARKNMLLAAQQLCKEFTELLSQDRTPHGTSRLAPVLETNIQNCLSHFSLITHGFGSQAICAAVSALQNYIKEALIVIDKSYMNPGDQSPADSNKTLEKMEKHREGHHHHHH | soluble |
| MSLNQRLPVTVLSGFLGAGKSTLLNHVLKNRENRRVAVIVNDMSEINIDGSEVQRDVSLNRAEERLVEMSNGCICCTLREDLLEEVGRLAREGRFDYLLIESTGISEPMPVAETFTFRDELDRSLSDVARLDTMVTVVDGMNFLRDYQEAASLASRGETLGEEDQRSITDLLIDQVEFADVILVSKIDLISSEQREELLAILRQLNAEAEILPMVMGQVPLAKILDTGRFDFDRAASAPGWLKELRGEHLPETEEYGIASMAYRARRPFHPARFHAFLHNPLKQGRLLRSKGFFWLASRPREAGSWSQAGGLMRYGLAGRWWRFVPTGQWPQDEEGLRAIMRHWEEGVGDCRQELVFIGQNLDFAALRAALDACLLDDAEMNLGIPGWQGLDDPFEDWGHAEGHHHHHH | soluble |
| MSLSDLAKRIVQAADIVTVALDELLPRADGPESRLTEAMRYAALGPGKRLRPFFALETGKMFDLPERPVLRAACALECIHAYSLVHDDLPAMDDDDVRRGRPTVHKQYDEATAILAGDALQTAAFEIMAHPDTHDDGHVRSELVRKLAIASGARGMCGGQMIDLLGVRDDLGAVARMQRLKTGALIAFAFEIPLIIARAKESERSALMAFAQDLGLAYQIVDDILDAEGDEETLGKAAGGKDAAKGKANYVTLLGLDAAKERVTLLAEQTRSHLEIFGERAEHLRASVDFVLDRRNEGHHHHHH | soluble |
| MSTLTLPSDLRLPVTVFSGFLGAGKTTLLNRLLNNRDGLRVAVIVNDMSEVNIDAQLVRDGGAALSRTDETLVEFSNGCICCTLRDDLSKEVKRLALEQRYDYLLIESTGIGEPMPVAATFAVRDADGFCLSDVARLDTMVTVVDGSQFTALFSSMNTLADLGQQADSDDTRSLADLLGQQIEFADTIVISKCDLIDATQLARVRAVVRGLNRDAQIIEAHLGEVPLPQLVGTGRFDFTRAQLAPGWMRELRGEHTPETEEYGITSFVYRARRPFHPLRFNHLLAHGLSGVIRSKGFFWLASRMDWVGELSSVGSATRTQAAGFWYAARHRVDVHEENMPPQIGIAPLPYTELGWQRQQNDCWTAPLPAPHEVSDPGEYVAMQRLWHPQWGDRRQELAVIGLDMDKDVARNELDACLLSNEELRMGPMYWSALPDPFPQWRRLEHHHHHH | not soluble |
| MVDVPRNFRLLEELEEGQKGKGDGNISWGLEDDSDMTLTRWTASIIGPPRTPYESRIYNLQIQCGGNYPREPPTVRFTTKVHMVGVNQSNGVIDKRNLTTLRNWSNSYMIKTVLEDIRKNMMMAKENLKLQQPAEGAMF | not soluble |
